# Laboratory results published in patent US20120095077.
# Chains of the proteins cited; added tags and fusions are not shown. Residues count along the entry.
# UniProt P19525, 1-184: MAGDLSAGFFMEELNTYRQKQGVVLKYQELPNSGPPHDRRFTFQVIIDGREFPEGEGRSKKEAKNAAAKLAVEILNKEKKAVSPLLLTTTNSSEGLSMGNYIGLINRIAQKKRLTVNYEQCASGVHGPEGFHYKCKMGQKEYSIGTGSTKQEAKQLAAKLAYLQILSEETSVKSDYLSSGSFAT
# The exact form of at least one protein or probe is not confirmed.
# Molecular target: PKR RNA-binding domain (RBD) (UniProt P19525)
# Test: footprint
# Settings: N2-propyl-8-oxo-2'-deoxyguanosine at antisense positions 4, 11, 16 (X); sense 3' TT overhang [antisense 4, 11, 16 (N2-propyl-8-oxo-2'-deoxyguanosine = G)]; ribonuclease V1 footprinting; A pairing places propyl in major groove; about 3-fold tighter than C-paired duplex; purified recombinant protein; letters built from the parent sequence and the stated change
sequence,measurement,value
GGAAAUGCAAGAGAAACUGTT / CAGGUUCUCUGGCAUGUCCTT,binding result,binds
